PubChem BioAssay AID1159584 | Peter MacCallum Cancer Centre – 2016
Assay: 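Genes that CDH1-null MCF10A cells selectively depend on to survive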 (primary screen). System: human MCF10A breast epithelial cells, parental and CDH1-null. Knock-down reagent: siRNA against human genes. Read-out: 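Cell viability by CellTiter-Glo ATP luminescence, each line scaled to the mean of mock wells across plates, then CDH1-null over parental ratio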. Direction: CDH1-null / parental viability ratio: higher = CDH1-null cells survive relatively better than parental; CDH1-null viability vs mock: higher = more viable CDH1-null cells.
Here is a random part of about 18,000 reagents. Not all columns of the deposit are shown. Not given: the amount of reagent, the time to read-out.

Which result is listed for OR11H1 [SID134329889]?
CDH1-null / parental viability ratio: 1.27; CDH1-null viability vs mock (fraction of mock): 0.99

What is on record for MTHFSD [SID152154159]?
CDH1-null / parental viability ratio: 0.97; CDH1-null viability vs mock (fraction of mock): 0.71

What is on record for H1-3 [SID134316344]?
CDH1-null / parental viability ratio: 0.94; CDH1-null viability vs mock (fraction of mock): 0.84

What did the screen give for MYH3 [SID135622359]?
CDH1-null / parental viability ratio: 1.15; CDH1-null viability vs mock (fraction of mock): 0.82

What is on record for MAP6D1 [SID134318639]?
CDH1-null / parental viability ratio: 0.89; CDH1-null viability vs mock (fraction of mock): 0.68

How did the screen score MAPKAPK3 [SID56478946]?
CDH1-null / parental viability ratio: 0.94; CDH1-null viability vs mock (fraction of mock): 0.75

For LMOD1 [SID152148917], how do the results read?
CDH1-null / parental viability ratio: 1.27; CDH1-null viability vs mock (fraction of mock): 0.94

What did the screen give for TECPR2 [SID152151889]?
CDH1-null / parental viability ratio: 1.05; CDH1-null viability vs mock (fraction of mock): 0.92

How did the screen score GLCCI1 [SID152152001]?
CDH1-null / parental viability ratio: 1.03; CDH1-null viability vs mock (fraction of mock): 0.68

With SLC27A5 [SID135621392], what does the deposit list?
CDH1-null / parental viability ratio: 0.98; CDH1-null viability vs mock (fraction of mock): 0.84

For HES1 [SID152146950], how do the results read?
CDH1-null / parental viability ratio: 0.89; CDH1-null viability vs mock (fraction of mock): 0.8

With MOV10L1 [SID134317614], what does the deposit list?
CDH1-null / parental viability ratio: 1.01; CDH1-null viability vs mock (fraction of mock): 0.68

For OR2A14 [SID152148871], what does the deposit list?
CDH1-null / parental viability ratio: 1.25; CDH1-null viability vs mock (fraction of mock): 0.7

With GAS8-AS1 [SID135623932], what was measured?
CDH1-null / parental viability ratio: 0.98; CDH1-null viability vs mock (fraction of mock): 0.43

With ABL1 [SID135620610], how do the results read?
CDH1-null / parental viability ratio: 0.92; CDH1-null viability vs mock (fraction of mock): 0.8

What is on record for NKX2-5 [SID135623837]?
CDH1-null / parental viability ratio: 0.91; CDH1-null viability vs mock (fraction of mock): 0.89

With KRT83 [SID134315662], what was measured?
CDH1-null / parental viability ratio: 1.03; CDH1-null viability vs mock (fraction of mock): 0.68

What is on record for KLF13 [SID135621288]?
CDH1-null / parental viability ratio: 0.92; CDH1-null viability vs mock (fraction of mock): 0.9

For SHB [SID135623815], what was measured?
CDH1-null / parental viability ratio: 1.04; CDH1-null viability vs mock (fraction of mock): 0.96

What is on record for ONECUT2 [SID152152818]?
CDH1-null / parental viability ratio: 0.91; CDH1-null viability vs mock (fraction of mock): 0.53

For TRABD [SID134323185], what was measured?
CDH1-null / parental viability ratio: 0.62; CDH1-null viability vs mock (fraction of mock): 0.47

What is on record for AP4M1 [SID152151271]?
CDH1-null / parental viability ratio: 0.91; CDH1-null viability vs mock (fraction of mock): 0.86

With CUTA [SID152153173], what was measured?
CDH1-null / parental viability ratio: 1; CDH1-null viability vs mock (fraction of mock): 0.86

For DYNAP [SID135623480], how do the results read?
CDH1-null / parental viability ratio: 1.25; CDH1-null viability vs mock (fraction of mock): 0.96

4 entries already listed, arranged by “CDH1-null / parental viability ratio”, ascending:
NKX2-5 [SID135623837] → CDH1-null / parental viability ratio: 0.91; CDH1-null viability vs mock (fraction of mock): 0.89
ABL1 [SID135620610] → CDH1-null / parental viability ratio: 0.92; CDH1-null viability vs mock (fraction of mock): 0.8
KLF13 [SID135621288] → CDH1-null / parental viability ratio: 0.92; CDH1-null viability vs mock (fraction of mock): 0.9
KRT83 [SID134315662] → CDH1-null / parental viability ratio: 1.03; CDH1-null viability vs mock (fraction of mock): 0.68
